According to PubChem BioAssay AID504467 (National Center for Advancing Translational Sciences (NCATS), 2011):
Among all 330,000 compounds or so, about 7,700 (2.3%) were called active. Inconclusive means that the source gave no clear call. Such entries were picked first, then a sample of the others. The call rests on the fitted dose curve; in most records, active means well fitted inhibition curve with a large enough effect; inconclusive means small, poorly fitted or top-dose-only effect, or effect the other way; inactive means flat fitted curve, though single readings scatter. Potencies of inconclusive entries are doubtful fits and often do not repeat.
Potency means the concentration at half of the fitted maximal effect.

Assay: qHTS screen for small molecules that inhibit ELG1-dependent DNA repair in human embryonic kidney (HEK293T) cells expressing luciferase-tagged ELG1; further: nearly all actives have a fitted effect of over 55% in size
Conditions: HEK293T ELG1-luciferase reporter, luminescence, 16 h, DNA damage induced by 5-fluorouridine; series mostly up to 46.1 µM
Summary of the method: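 In this reporter screen, reduction of luminescence relative to DMSO vehicle indicated activity. Compounds and 5-fluorouridine were added together to 2,000 cells per well, incubated for 16 hr at 37 °C, then developed with ONE-Glo.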
For `CCOc1ccccc1NC(=O)CCC(=O)O`, the Potency was “inactive”.
In the case of `CC(C)CCNC(=O)NC(=O)COC(=O)/C=C/c1cnc2ccccc2n1`, the Potency is reported as inconclusive: 29.1 µM [activator, single point].
For `O=C(/C=C/c1cccc([N+](=O)[O-])c1)N1CCN(S(=O)(=O)c2cccs2)CC1`, the Potency was inconclusive: 23.1 µM [inhibitor, single point].
With `CCN(CC(=O)Nc1ccc2c(c1)OCCO2)C(=O)c1ccccc1Br` the Potency was inconclusive: 25.9 µM [activator, single point].
In the case of `COC(=O)c1cc(C#N)c(NCc2ccccc2)nc1C`, the Potency is reported as “inactive”.
For `COc1cc(/C=C2\NC(=O)NC2=O)cc(Br)c1OC`, the Potency was inconclusive: 6.51 µM [inhibitor, partial curve, poor fit].
For `O=C(N/N=C/c1cc(Br)c(O)c(Br)c1)c1cccnc1`, the Potency was “inactive”.
In the case of `Cc1onc(-c2c(F)cccc2Cl)c1C(=O)N1CCCCC1`, the Potency is reported as “inactive”.
In the case of `CC(=O)N1CCC(c2c[nH]c3ccccc23)CC1`, the Potency is reported as “inactive”.
With `O=C(NCc1ccc(F)cc1)C(c1ccc(Cl)cc1)N(C(=O)c1csnn1)C1CC1` (stereo not drawn) the Potency was inconclusive: 0.116 µM [activator, single point].
In the case of `O=C(CSc1nnc(-c2ccc(O)cc2)o1)Nc1ccccc1Br`, the Potency is reported as inconclusive: 10.3 µM [activator, partial curve].
In the case of `CCOC(=O)N1CCN(C(=O)c2cccc(OC)c2O)CC1`, the Potency is reported as “inactive”.
In the case of `O=C1NC(c2ccccc2)Nc2c1sc(=S)n2-c1ccccc1` (stereo not drawn), the Potency is reported as inconclusive: 29.1 µM [inhibitor, single point].
With `CS(=O)(=O)Nc1ccc(C2=NN(S(=O)(=O)c3ccccc3)C(c3cccs3)C2)cc1` (stereo not drawn) the Potency was inconclusive: 20.6 µM [inhibitor, single point].
With `CCCC(=O)c1cc(F)c(N2CCN(S(=O)(=O)c3ccccc3)CC2)cc1C` the Potency was inconclusive: 14.6 µM [inhibitor, single point].
With `O=C(O)c1cc(/C=C/C(=O)c2cc(F)ccc2O)c2c(c1)COCO2` the Potency was inconclusive: 29.1 µM [activator, single point].
With `CCCc1cc(C(=O)Cc2nc3ccccc3s2)c(O)cc1O` the Potency was inconclusive: 5.62 µM [activator, single point].
With `Cc1ccc2cccc(N=Cc3c(C)[nH]n(-c4ccccc4)c3=O)c2n1` the Potency was “inactive”.
With `CCCCNC(=O)c1ccccc1Cl` the Potency was inconclusive: 16.4 µM [activator, single point].
With `COc1ccc(C(C)NC(=O)Cc2cccs2)cc1OC` (stereo not drawn) the Potency was inconclusive: 18.3 µM [activator, single point].
In the case of `O=C(N/N=C/c1ccc(F)cc1)c1cc(-c2ccccn2)nc2ccccc12`, the Potency is reported as “inactive”.
With `COc1ccc2oc(-c3ccccc3[N+](=O)[O-])cc(=O)c2c1` the Potency was inconclusive: 14.6 µM [activator, single point].
In the case of `COC(=O)c1sc(=S)n(-c2ccc(Cl)cc2)c1C`, the Potency is reported as inconclusive: 25.9 µM [activator, single point].
For `O=C(O)/C=C/C(=O)N1CCN(C(c2ccccc2)c2ccccc2)CC1`, the Potency was inconclusive: 29.1 µM [inhibitor, single point].
With `CN(C)S(=O)(=O)c1cccc(NC(=S)N/N=C/c2ccc(O)c(O)c2O)c1` the Potency was active: 16.4 µM.
With `COc1ccc(NC(C)=O)cc1NC(=O)CSc1nc2ncccc2[nH]1` the Potency was “inactive”.
With `Cc1cnc(C(=O)OCC(=O)Nc2cccc(S(=O)(=O)N3CCOCC3)c2)cn1` the Potency was inconclusive: 20.6 µM [activator, partial curve, poor fit].
In the case of `Cc1ccc(NC(=O)COC(=O)c2ccc[n+]([O-])c2)c(Br)c1`, the Potency is reported as “inactive”.
In the case of `O=C(NCc1ccccc1C(F)(F)F)c1cccc2c1C(=O)c1ccc(N3CCOCC3)cc1S2(=O)=O`, the Potency is reported as active: 5.17 µM.
With `O=C(CCc1ccccc1)NCCc1ccc(F)cc1` the Potency was “inactive”.
With `CS(=O)(=O)Nc1cccc(C2=NN(C(=O)c3ccccc3Cl)C(c3ccccc3O)C2)c1` (stereo not drawn) the Potency was inconclusive: 23.1 µM [inhibitor, single point].
With `COc1ccc(OCc2cc(C(=O)N(C)C(C)c3ccon3)no2)c(Cl)c1` (stereo not drawn) the Potency was inconclusive: 18.3 µM [activator, partial curve].
In the case of `CCOc1ccc(CN(C)C(=O)CCc2ccc(S(=O)(=O)N3CCCCCC3)cc2)cc1`, the Potency is reported as active: 7.94 µM.
In the case of `CC1CCN(C(=O)C2CCN(S(=O)(=O)c3cc(Cl)ccc3Cl)CC2)CC1`, the Potency is reported as inconclusive: 32.6 µM [inhibitor, partial curve, poor fit].
In the case of `CSc1nnc(Cc2sc(-c3ccccc3)nc2-c2ccccc2)o1`, the Potency is reported as inconclusive: 29.1 µM [inhibitor, single point].
With `O=C(CSc1ccc([N+](=O)[O-])cc1)Nc1nnc(C2CC2)s1` the Potency was “inactive”.
In the case of `CC1(C)CC(=O)CC(C2(O)C(=O)N(Cc3ccccc3)c3ccccc32)O1` (stereo not drawn), the Potency is reported as “inactive”.
With `O=C(c1cccnc1)N1N=C(c2cccs2)CC1c1ccc(F)cc1` (stereo not drawn) the Potency was “inactive”.
For `CSc1ncccc1C(=O)NCc1nnc2ccccn12`, the Potency was inconclusive: 23.1 µM [activator, partial curve, poor fit].
For `CCN(CC)S(=O)(=O)c1cccc(C(=O)Nc2nc3cc4c(cc3s2)OCCO4)c1`, the Potency was active: 11.6 µM.
With `OCCNc1ncnc2c1ncn2Cc1ccccc1` the Potency was inconclusive: 20.6 µM [activator, partial curve, poor fit].
In the case of `O=C(O)c1cccc(S(=O)(=O)Nc2cc(Cl)ccc2Cl)c1`, the Potency is reported as inconclusive: 20.6 µM [activator, partial curve].
With `CCc1cc2cc(C)cc(C)c2nc1SCC(=O)N1CCN(C(=O)c2ccco2)CC1` the Potency was active: 8.2 µM.
In the case of `CCc1ccc(S(=O)(=O)NCCc2csc(-c3cccnc3)n2)s1`, the Potency is reported as inconclusive: 29.1 µM [inhibitor, single point].
With `COC(=O)c1ccc(N2OC3(C)C=CC2CC3)cc1` (stereo not drawn) the Potency was inconclusive: 16.4 µM [activator, partial curve].
With `Fc1ccc(-[n+]2nc(Nc3ccccc3)sc2-c2c3ccccc3cc3ccccc23)cc1` the Potency was active: 4.61 µM.
In the case of `O=C(Cc1ccc(Br)cc1)Nc1ccc2[nH]ncc2c1`, the Potency is reported as inconclusive: 18.3 µM [activator, partial curve, poor fit].
With `O=C(NCCc1ccc2c(c1)OCCO2)c1cccc(S(=O)(=O)N2CCCC2)c1` the Potency was “inactive”.
In the case of `CCOC(=O)c1csc(-c2ccc3c(c2)CCO3)n1`, the Potency is reported as inconclusive: 10.3 µM [activator, partial curve].
For `OCCC#Cc1ccc(CN2CCN(CCc3ccccc3)C(CCO)C2)cc1` (stereo not drawn), the Potency was “inactive”.
For `Cc1nc2ccc(S(=O)(=O)NCC(=O)NC(C)c3ccccc3)cc2s1` (stereo not drawn), the Potency was “inactive”.
For `COc1ccccc1-n1c(SCC(N)=O)nc2c(c1=O)SCC2`, the Potency was inconclusive: 18.4 µM [activator, partial curve, poor fit].
In the case of `CCN(c1ccccc1)S(=O)(=O)c1ccc(C(=O)Nc2cccc(C)n2)cc1`, the Potency is reported as inconclusive: 29.1 µM [inhibitor, single point].
With `Cc1ccccc1NC(=O)N1CCNC(=O)C1CC(=O)Nc1cc(Cl)ccc1Cl` (stereo not drawn) the Potency was “inactive”.
With `CN1N=C(C(=O)Nc2ccc3c(c2)CCC3)CCC1=O` the Potency was inconclusive: 20.6 µM [activator, partial curve].
In the case of `CCN1CCN(CCNC(=O)C2CCN(Cc3nc(-c4ccc(Cl)cc4)oc3C)CC2)CC1`, the Potency is reported as “inactive”.
In the case of `Cc1cccc2nc(-c3cccnc3)c(Nc3ccccc3)n12`, the Potency is reported as active: 18.3 µM.
For `c1ccc(C2c3c(ccc4ccccc34)Oc3ncn4nc(-c5ccco5)nc4c32)cc1` (stereo not drawn), the Potency was inconclusive: 29.1 µM [activator, single point].
In the case of `O=S(=O)(Nc1ccn(-c2ccccc2)n1)c1ccc(Br)cc1`, the Potency is reported as inconclusive: 18.4 µM [activator, single point].
In the case of `COc1ccc(OC)c(C(=O)c2ccc(C(=O)Nc3ccc4ccccc4c3)cc2)c1`, the Potency is reported as inconclusive: 14.6 µM [activator, single point].
With `Cc1nnc(N2CCOCC2)c2nn(-c3cccc(Cl)c3)c(C)c12` the Potency was inconclusive: 25.9 µM [inhibitor, partial curve].
For `CCC1CCCCN1S(=O)(=O)c1ccc(C(=O)Nc2nnc(C3CC3)o2)cc1` (stereo not drawn), the Potency was inconclusive: 20.6 µM [inhibitor, single point].
For `Cc1ccc(NS(=O)(=O)c2cc(C(=O)NCCCN(C)C)ccc2Cl)cc1Cl`, the Potency was “inactive”.
In the case of `C=CCN1C(=Nc2cccnc2)SCC1(O)c1ccc(C)cc1` (stereo not drawn), the Potency is reported as inconclusive: 29.1 µM [activator, single point].
In the case of `O=C(CSc1nc2ccccc2c(=O)n1CC1CCCO1)Nc1ccc(F)cc1` (stereo not drawn), the Potency is reported as inconclusive: 23.1 µM [inhibitor, single point].
With `O=C(NCCn1cccn1)c1ccc(OC2CCN(CCc3ccccc3)CC2)cc1` the Potency was “inactive”.
For `CC(C)n1c(-c2cccnc2)nc2cnccc21`, the Potency was active: 13 µM.
In the case of `Cc1ccc(/C=C(\NC(=O)c2ccccc2)C(=O)N2CCCCC2)cc1`, the Potency is reported as “inactive”.
With `CCOC(=O)CC1COCCN1C(=O)CCc1nnc(-c2ccsc2)o1` (stereo not drawn) the Potency was inconclusive: 23.1 µM [activator, single point].
In the case of `CCOC(=O)N1CCN(C(=S)Nc2cc(S(=O)(=O)N3CCOCC3)ccc2Cl)CC1`, the Potency is reported as inconclusive: 18.3 µM [inhibitor, partial curve].
For `O=C(O)c1ccc(NC(=O)c2cc3ccccc3o2)cc1`, the Potency was inconclusive: 20.6 µM [activator, partial curve].
In the case of `CCCCCCCC(=O)N/N=C(\C)c1ccc(O)cc1O`, the Potency is reported as inconclusive: 18.4 µM [inhibitor, partial curve, poor fit].
With `N#CCN(C(=O)COC(=O)CCCNC(=O)c1ccc(Cl)cc1)c1ccccc1` the Potency was “inactive”.
